{"sequences": {"note": "Chains of the proteins cited; added tags and fusions are not shown.", "UniProt P29590": "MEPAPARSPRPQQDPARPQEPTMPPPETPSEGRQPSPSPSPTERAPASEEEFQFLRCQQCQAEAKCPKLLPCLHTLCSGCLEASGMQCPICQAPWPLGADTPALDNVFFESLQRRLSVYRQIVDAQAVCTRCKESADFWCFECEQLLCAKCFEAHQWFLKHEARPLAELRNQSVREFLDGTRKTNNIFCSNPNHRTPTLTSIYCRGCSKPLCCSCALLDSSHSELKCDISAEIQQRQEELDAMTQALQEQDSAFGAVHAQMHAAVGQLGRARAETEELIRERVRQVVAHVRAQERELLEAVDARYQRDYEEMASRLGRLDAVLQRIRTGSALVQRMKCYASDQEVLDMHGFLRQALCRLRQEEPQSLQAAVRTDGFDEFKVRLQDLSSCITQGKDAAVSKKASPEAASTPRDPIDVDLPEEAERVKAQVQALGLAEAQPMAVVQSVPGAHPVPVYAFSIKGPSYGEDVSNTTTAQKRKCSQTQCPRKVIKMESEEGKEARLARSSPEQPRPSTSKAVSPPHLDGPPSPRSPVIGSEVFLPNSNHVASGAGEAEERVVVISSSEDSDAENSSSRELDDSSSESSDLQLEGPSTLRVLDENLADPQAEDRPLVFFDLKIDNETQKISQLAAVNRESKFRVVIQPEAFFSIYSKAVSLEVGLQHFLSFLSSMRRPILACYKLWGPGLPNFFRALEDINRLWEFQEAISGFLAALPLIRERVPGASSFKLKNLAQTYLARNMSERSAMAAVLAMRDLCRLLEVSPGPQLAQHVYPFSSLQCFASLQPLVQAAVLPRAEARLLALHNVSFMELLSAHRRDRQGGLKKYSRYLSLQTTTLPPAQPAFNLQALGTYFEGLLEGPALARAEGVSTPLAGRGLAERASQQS", "UniProt F5HDE4": "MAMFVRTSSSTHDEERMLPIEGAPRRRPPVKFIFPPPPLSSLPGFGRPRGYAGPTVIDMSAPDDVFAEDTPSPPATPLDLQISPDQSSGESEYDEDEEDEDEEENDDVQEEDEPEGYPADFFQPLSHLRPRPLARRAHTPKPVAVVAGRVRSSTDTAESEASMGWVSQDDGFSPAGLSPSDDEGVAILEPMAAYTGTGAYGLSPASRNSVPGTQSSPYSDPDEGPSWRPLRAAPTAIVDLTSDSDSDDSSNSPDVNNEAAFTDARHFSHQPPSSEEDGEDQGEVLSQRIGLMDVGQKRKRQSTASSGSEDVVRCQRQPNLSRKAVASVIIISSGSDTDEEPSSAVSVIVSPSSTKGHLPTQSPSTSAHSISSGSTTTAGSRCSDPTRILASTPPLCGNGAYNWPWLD"}, "source": "paper PMC11781660", "key": {"IKKε amino acid 300–500": {"target": "IKKε amino acid 300–500 (UniProt Q14164)", "experiment": "co-IP; HEK293T co-transfected with indicated plasmids (with or without ORF45 co-expressed), lysed 48 h after transfection in 50 mM Tris-HCl pH 7.4, 150 mM NaCl, 1% NP-40, 1 mM EDTA, 10% glycerol; anti-Flag M2 agarose, 4 h at 4°C"}, "IKKε amino acid 500–716": {"target": "IKKε amino acid 500–716 (UniProt Q14164)", "experiment": "co-IP; HEK293T co-transfected with indicated plasmids (with or without ORF45 co-expressed), lysed 48 h after transfection in 50 mM Tris-HCl pH 7.4, 150 mM NaCl, 1% NP-40, 1 mM EDTA, 10% glycerol; anti-Flag M2 agarose, 4 h at 4°C"}, "[1]": {"target": "T1, IκB kinase ε (IKKε), endogenous (human (endogenous in SLK-iBAC and BCBL1)) (UniProt Q14164)", "T1 sequence": "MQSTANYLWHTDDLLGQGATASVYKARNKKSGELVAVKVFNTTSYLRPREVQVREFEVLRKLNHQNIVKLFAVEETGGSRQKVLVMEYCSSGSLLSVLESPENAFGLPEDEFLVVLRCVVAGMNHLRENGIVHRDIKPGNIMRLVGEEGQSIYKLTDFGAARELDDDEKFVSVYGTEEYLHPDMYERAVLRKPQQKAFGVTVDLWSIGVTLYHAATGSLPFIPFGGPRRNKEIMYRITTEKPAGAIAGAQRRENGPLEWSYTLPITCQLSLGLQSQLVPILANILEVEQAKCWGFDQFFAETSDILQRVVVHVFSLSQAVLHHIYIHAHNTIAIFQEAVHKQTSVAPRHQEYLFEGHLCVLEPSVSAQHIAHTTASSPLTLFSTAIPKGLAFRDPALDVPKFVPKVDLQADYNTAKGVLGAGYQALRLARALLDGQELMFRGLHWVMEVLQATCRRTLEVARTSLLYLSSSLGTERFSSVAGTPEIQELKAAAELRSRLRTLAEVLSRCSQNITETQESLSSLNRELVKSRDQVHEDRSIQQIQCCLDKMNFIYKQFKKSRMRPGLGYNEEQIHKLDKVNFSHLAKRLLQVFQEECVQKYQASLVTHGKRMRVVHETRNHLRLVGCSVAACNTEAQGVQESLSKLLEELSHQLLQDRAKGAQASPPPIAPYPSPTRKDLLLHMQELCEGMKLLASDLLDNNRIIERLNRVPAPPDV", "experiment": "co-IP; endogenous proteins; lysates of SLK-iBAC cells (with or without Dox/NaB, 48 h) or BCBL1 cells (with or without TPA, 72 h); IP and IB with indicated antibodies"}, "PML, transfected": {"target": "PML, transfected (UniProt P29590)", "experiment": "co-IP; HEK293T co-transfected with indicated plasmids (with or without ORF45 co-expressed), lysed 48 h after transfection in 50 mM Tris-HCl pH 7.4, 150 mM NaCl, 1% NP-40, 1 mM EDTA, 10% glycerol; anti-Flag M2 agarose, 4 h at 4°C"}, "[2]": {"target": "PML, endogenous (human (endogenous in SLK-iBAC and BCBL1)) (UniProt P29590)", "experiment": "co-IP; endogenous proteins; lysates of SLK-iBAC cells (with or without Dox/NaB, 48 h) or BCBL1 cells (with or without TPA, 72 h); IP and IB with indicated antibodies"}}, "note": "These are yes or no findings as the source states them, for the method shown. Binding seen in cells or lysates may run through a third protein. Some binding calls cover weakened binding; strength is not graded here.", "data": [{"molecule": "KSHV ORF45, transfected (from UniProt F5HDE4 1-407)", "values": [{"measurement": "binding", "setting": "IKKε amino acid 300–500", "result": "binds"}, {"measurement": "binding", "setting": "IKKε amino acid 500–716", "result": "binds"}]}, {"molecule": "KSHV ORF45, expressed from the viral genome during lytic replication (from UniProt F5HDE4 1-407)", "values": [{"measurement": "binding", "setting": "[1]", "result": "binds"}]}, {"molecule": "wild-type IKKε, transfected (protein, UniProt Q14164 1-716) MQSTANYLWHTDDLLGQGATASVYKARNKKSGELVAVKVFNTTSYLRPREVQVREFEVLRKLNHQNIVKLFAVEETGGSRQKVLVMEYCSSGSLLSVLESPENAFGLPEDEFLVVLRCVVAGMNHLRENGIVHRDIKPGNIMRLVGEEGQSIYKLTDFGAARELDDDEKFVSVYGTEEYLHPDMYERAVLRKPQQKAFGVTVDLWSIGVTLYHAATGSLPFIPFGGPRRNKEIMYRITTEKPAGAIAGAQRRENGPLEWSYTLPITCQLSLGLQSQLVPILANILEVEQAKCWGFDQFFAETSDILQRVVVHVFSLSQAVLHHIYIHAHNTIAIFQEAVHKQTSVAPRHQEYLFEGHLCVLEPSVSAQHIAHTTASSPLTLFSTAIPKGLAFRDPALDVPKFVPKVDLQADYNTAKGVLGAGYQALRLARALLDGQELMFRGLHWVMEVLQATCRRTLEVARTSLLYLSSSLGTERFSSVAGTPEIQELKAAAELRSRLRTLAEVLSRCSQNITETQESLSSLNRELVKSRDQVHEDRSIQQIQCCLDKMNFIYKQFKKSRMRPGLGYNEEQIHKLDKVNFSHLAKRLLQVFQEECVQKYQASLVTHGKRMRVVHETRNHLRLVGCSVAACNTEAQGVQESLSKLLEELSHQLLQDRAKGAQASPPPIAPYPSPTRKDLLLHMQELCEGMKLLASDLLDNNRIIERLNRVPAPPDV", "values": [{"measurement": "binding", "setting": "PML, transfected", "result": "binds"}]}, {"molecule": "IκB kinase ε (IKKε), endogenous (protein, UniProt Q14164 1-716) MQSTANYLWHTDDLLGQGATASVYKARNKKSGELVAVKVFNTTSYLRPREVQVREFEVLRKLNHQNIVKLFAVEETGGSRQKVLVMEYCSSGSLLSVLESPENAFGLPEDEFLVVLRCVVAGMNHLRENGIVHRDIKPGNIMRLVGEEGQSIYKLTDFGAARELDDDEKFVSVYGTEEYLHPDMYERAVLRKPQQKAFGVTVDLWSIGVTLYHAATGSLPFIPFGGPRRNKEIMYRITTEKPAGAIAGAQRRENGPLEWSYTLPITCQLSLGLQSQLVPILANILEVEQAKCWGFDQFFAETSDILQRVVVHVFSLSQAVLHHIYIHAHNTIAIFQEAVHKQTSVAPRHQEYLFEGHLCVLEPSVSAQHIAHTTASSPLTLFSTAIPKGLAFRDPALDVPKFVPKVDLQADYNTAKGVLGAGYQALRLARALLDGQELMFRGLHWVMEVLQATCRRTLEVARTSLLYLSSSLGTERFSSVAGTPEIQELKAAAELRSRLRTLAEVLSRCSQNITETQESLSSLNRELVKSRDQVHEDRSIQQIQCCLDKMNFIYKQFKKSRMRPGLGYNEEQIHKLDKVNFSHLAKRLLQVFQEECVQKYQASLVTHGKRMRVVHETRNHLRLVGCSVAACNTEAQGVQESLSKLLEELSHQLLQDRAKGAQASPPPIAPYPSPTRKDLLLHMQELCEGMKLLASDLLDNNRIIERLNRVPAPPDV", "values": [{"measurement": "binding", "setting": "[2]", "result": "binds"}]}]}
